In patent US7060673B2 (LG Household and Health Care Ltd., priority 2001, dated 2006):

Assay: general procedure: Fmoc solid-phase peptide synthesis; HMP resin; 1-hydroxy-benzotriazole (HOBT)
Conditions: whole synthesis, scale 0.25 mmol

For KKKKKKKKKGKH, the isolated yield was “approximately 30.5%”.

Where a sequence shows no end group, the ends are not given.
